Assay [1] has as its target cynomolgus monkey CCR8 (cynomolgus monkey) (UniProt G7NYJ2). In words: FACS on CHO-K1 cells overexpressing cynomolgus monkey CCR8.
Assay [2] has the same target. Nature of the assay: FACS, CHO-K1-CynoCCR8 cells.

By UniProt entry, the sequences of proteins in these tests, tags left out. Where a name states a change or a piece, a line headed by the entry shows the natural chain unless it says otherwise. Chains listed by the source or under a name are the forms on record and can include a tag or linker.
cynomolgus monkey CCR8 (G7NYJ2, form named): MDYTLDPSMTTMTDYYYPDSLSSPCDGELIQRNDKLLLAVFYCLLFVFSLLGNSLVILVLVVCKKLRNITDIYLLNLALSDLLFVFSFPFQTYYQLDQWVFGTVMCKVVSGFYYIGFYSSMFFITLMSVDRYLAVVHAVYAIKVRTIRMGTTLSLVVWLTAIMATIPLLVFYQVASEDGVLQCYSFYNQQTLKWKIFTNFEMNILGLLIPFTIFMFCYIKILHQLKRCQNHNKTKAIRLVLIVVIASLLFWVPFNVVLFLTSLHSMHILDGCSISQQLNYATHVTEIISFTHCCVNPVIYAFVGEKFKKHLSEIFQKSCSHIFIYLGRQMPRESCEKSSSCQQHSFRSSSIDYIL

No constants are given. Whether binding was seen depends on the method and setting. Some binding calls cover weakened binding; strength is not graded here.

These results are taken from US20240132603A1.

B1: PR005170 (antibody, human IgG1, kappa, V domains shown)
VH: EVQLVESGGGLVQPKGSLKLSCAASGFTFNTYAMNWVRQAPGKGLEWVARIRSKSNNYATYYADSVKDRFTISRDDSQSMLYLQMNNLKTEDTAMYYCVRGKENGNYYAMDFWGQGTSVTVSA
VL: DIVMTQAAPSVPVTPGESVSISCRSSKSLLHSNGKIYLYWFLQRPGQSPQLLIYRMSNLASGVPDRFSGSGSGTAFTLRISRVEAEDVGVYYCMQHLEYPITFGAGTKLEIKR
For the molecule B1, the binding entry in assay [1] and in assay [2] was “binds” each time.

B2: PR005171 (antibody, human IgG1, kappa, V domains shown)
VH: EVQLVESGGGLVQPKGSLKLSCAASGFTFNTYAMNWVRQAPGKGLEWVARIRSKSNNYATYYADSVKDRFTISRDDSQSMLYLQMNNLKTEDTAMYYCVRGKENGNYYAMDFWGQGTSVTVSA
VL: DIVMTQAAPSVPVTPGESVSISCRSSKSLLHSNGKIYLYWFLQRPGQSPQLLIYRMSNLASGVPDRFSGSGSGTAFTLRISRVEAEDVGVYYCMQHLEYPMTFGAGTKLEIKR
B2: the binding entry in assay [1] and in assay [2] was “binds” in each case.

B3: PR005172 (antibody, human IgG1, kappa, V domains shown)
VH: EVQLVESGGGLVQPKGSLKLSCAASGFTFNTYAMNWVRQAPGKGLEWVARIRSKSNNYATYYADSVKDRFTISRDDSQSMLYLQMNNLKTEDTAMYYCVRGKENGNYYAMDFWGQGTSVTVSA
VL: DIVMTQAAPSVPVTPGESVSISCRSSKSLLHSNGKIYLYWFLQRPGQSPQLLIYRMSNLASGVPDRFSGSGSGTAFTLRISRVEAEDVGVYYCMQHLEYPVTFGAGTKLEIKR
As for B3, the binding entry in assay [1] and in assay [2] was “binds” throughout.

B4: PR004662 (antibody, human IgG1, kappa, V domains shown)
VH: EVQLVESGGGLVQPGGSLRLSCAASGFTFSTYAMNWVRQAPGKGLEWVSRIRSKSNNYATYYADSVKDRFTISRDDSKSTLYLQMNSLRAEDTAVYYCVRGKENANYYAMDFWGQGTTVTVSS
VL: DIVMTQSPLSLPVTPGEPASISCRSSKSLLHSNAKIYLYWFLQKPGQSPQLLIYRMSNLASGVPDRFSGSGSGTDFTLKISRVEAEDVGVYYCMQHLEYPLTFGQGTKLEIKR
B4: the binding result in assay [1] and in assay [2] was “binds” each time.

B5: PR004663 (antibody, human IgG1, kappa, V domains shown)
VH: EVQLVESGGGLVQPGGSLRLSCAASGFTFSTYAMNWVRQAPGKGLEWVSRIRSKSNNYATYYADSVKDRFTISRDDSKSTLYLQMNSLRAEDTAVYYCVRGKEQGNYYAMDFWGQGTTVTVSS
VL: DIVMTQSPLSLPVTPGEPASISCRSSKSLLHSNAKIYLYWFLQKPGQSPQLLIYRMSNLASGVPDRFSGSGSGTDFTLKISRVEAEDVGVYYCMQHLEYPLTFGQGTKLEIKR
With B5, the binding result in assay [1] and in assay [2] was “binds” in each case.

B6: PR004665 (antibody, human IgG1, kappa, V domains shown)
VH: EVQLVESGGGLVKPGGSLRLSCAASGFTFSTYAMNWVRQAPGKGLEWVGRIRSKSNNYATYYADSVKDRFTISRDDSKSTLYLQMNSLKTEDTAVYYCVRGKEQGNYYAMDFWGQGTTVTVSS
VL: DIVMTQSPLSLPVTLGQPASISCRSSKSLLHSNGKIYLYWFQQRPGQSPRLLIYRMSNLASGVPDRFSGSGSGTDFTLKISRVEAEDVGVYYCMQHLEYPLTFGQGTKLEIKR
For B6, the binding result in assay [1] and in assay [2] was “binds” throughout.

B7: PR006161 (antibody, human IgG1, kappa, V domains shown)
VH: EVQLVESGGGLVKPGGSLRLSCAASGFTFSTYAMNWVRQAPGKGLEWVGRIRSKSNYYATYYADSVKDRFTISRDDSKSTLYLQMNSLKTEDTAVYYCVRGKEHGKYYAMDFWGQGTTVTVSS
VL: DIVMTQSPLSLPVTLGQPASISCRSSKSLLHSNAKIYLYWFQQRPGQSPRLLIYRMSNLASGVPDRFSGSGSGTDFTLKISRVEAEDVGVYYCMQHLEYPLTFGQGTKLEIKR
In the case of B7, the binding result in assay [1] and in assay [2] was “binds” in each case.

B8: PR004664 (antibody, human IgG1, kappa, V domains shown)
VH: EVQLVESGGGLVKPGGSLRLSCAASGFTFSTYAMNWVRQAPGKGLEWVGRIRSKSNNYATYYADSVKDRFTISRDDSKSTLYLQMNSLKTEDTAVYYCVRGKENANYYAMDFWGQGTTVTVSS
VL: DIVMTQSPLSLPVTLGQPASISCRSSKSLLHSNGKIYLYWFQQRPGQSPRLLIYRMSNLASGVPDRFSGSGSGTDFTLKISRVEAEDVGVYYCMQHLEYPLTFGQGTKLEIKR
Take B8: the binding result in assay [1] and in assay [2] was “binds” each time.

B9: PR004667 (antibody, human IgG1, kappa, V domains shown)
VH: EVQLVESGGGLVKPGGSLRLSCAASGFTFSTYAMNWVRQAPGKGLEWVGRIRSKSNNYATYYADSVKDRFTISRDDSKSTLYLQMNSLKTEDTAVYYCVRGKEQGNYYAMDFWGQGTTVTVSS
VL: DIVMTQSPLSLPVTLGQPASISCRSSKSLLHSNAKIYLYWFQQRPGQSPRLLIYRMSNLASGVPDRFSGSGSGTDFTLKISRVEAEDVGVYYCMQHLEYPLTFGQGTKLEIKR
For B9, the binding entry in assay [1] and in assay [2] was “binds” in each case.

B10: PR006154 (antibody, human IgG1, kappa, V domains shown)
VH: EVQLVESGGGLVKPGGSLRLSCAASGFTFSTYAMNWVRQAPGKGLEWVGRIRSKSNNYATYYADSVKDRFTISRDDSKSTLYLQMNSLKTEDTAVYYCVRGKEHGNYYAMDFWGQGTTVTVSS
VL: DIVMTQSPLSLPVTLGQPASISCRSSKSLLHSNAKIYLYWFQQRPGQSPRLLIYRMSNLASGVPDRFSGSGSGTDFTLKISRVEAEDVGVYYCMQHLEYPLTFGQGTKLEIKR
In the case of B10, the binding result in assay [1] and in assay [2] was “binds” in each case.

B11: PR006157 (antibody, human IgG1, kappa, V domains shown)
VH: EVQLVESGGGLVKPGGSLRLSCAASGFTFSTYAMNWVRQAPGKGLEWVGRIRSKSNYYATYYADSVKDRFTISRDDSKSTLYLQMNSLKTEDTAVYYCVRGKEIGNYYAMDFWGQGTTVTVSS
VL: DIVMTQSPLSLPVTLGQPASISCRSSKSLLHSNAKIYLYWFQQRPGQSPRLLIYRMSNLASGVPDRFSGSGSGTDFTLKISRVEAEDVGVYYCMQHLEYPLTFGQGTKLEIKR
B11: the binding result in assay [1] and in assay [2] was “binds” in each case.

B12: PR006156 (antibody, human IgG1, kappa, V domains shown)
VH: EVQLVESGGGLVKPGGSLRLSCAASGFTFSTYAMNWVRQAPGKGLEWVGRIRSKSNNYATYYADSVKDRFTISRDDSKSTLYLQMNSLKTEDTAVYYCVRGKEIGNYYAMDFWGQGTTVTVSS
VL: DIVMTQSPLSLPVTLGQPASISCRSSKSLLHSNAKIYLYWFQQRPGQSPRLLIYRMSNLASGVPDRFSGSGSGTDFTLKISRVEAEDVGVYYCMQHLEYPLTFGQGTKLEIKR
As to B12, the binding entry in assay [1] and in assay [2] was “binds” in each case.
